The other results are listed elsewhere or left out. Further columns of the screen follow, without active or inactive calls. Compounds called inactive in the main read-out are mostly missing here. The note in brackets gives the kind of curve behind each potency; many fits are weak.
assay: IkB Signaling; settings: ABC-DLBCL IkBa-CBG/CBR dual luciferase ratio (green luciferase fused to IkBa over red control in OCI-Ly3 lymphoma cells), 4 h; measured here: control luc red channel unless noted
How it was run: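 Curves were fitted separately to fusion (green), unfused (red) and ratio luminescence, then classed by r2, magnitude and activity. Cells: OCI-Ly3, 4 h compound plus doxycycline at 37C; 10 uM MG-132 defined full response.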

Structure (SMILES)	AC50
COc1ccc(Nc2ncc3c(n2)CCN(Cc2cccc(F)c2F)C3)c(OC)c1	25.1 µM [falling, partial curve, poor fit]
CCOC(=O)c1c(-c2ccc(C)o2)csc1NC(=O)CSc1nnnn1-c1ccccc1	20 µM [rising, partial curve] [measured here: IkB-luc green channel]
Cc1ccc(C)c(NC(=O)c2cc(S(=O)(=O)N3CCN(c4cccc(Cl)c4)CC3)ccc2F)c1	3.16 µM [falling, full curve, poor fit]
Cc1c(C(=O)N2CCc3ccccc3C2)sc2nc(-c3ccccc3)cn12	15.8 µM [falling, partial curve]
Oc1c(C(c2ccccc2Cl)N2CCC(O)CC2)sc2nc(-c3ccco3)nn12 (stereo unspecified)	5.01 µM [rising, single point]
C#CCNc1c(C)c(C)nc2ncnn12	200 nM [rising, full curve, poor fit] [measured here: IkB-luc green channel]
O=C(Oc1ccccc1F)c1nc(SCc2ccccc2F)ncc1Cl	6.31 µM [rising, single point]
COc1ccccc1NC(=O)Cn1nc2c3cc(F)ccc3n(Cc3cccc(C)c3)cc-2c1=O	7.94 µM [falling, partial curve]
O=C(/C=C/c1ccccc1)Nc1nc2n(n1)C(c1ccc(Cl)cc1)C=C(c1ccccc1)N2 (stereo unspecified)	25.1 µM [falling, single point]
O=C(CN1C(=O)C2(SCC(=O)N2c2cccc(F)c2)c2ccccc21)NCc1ccccc1Cl (stereo unspecified)	15.8 µM [falling, partial curve]
CCc1nc2ccccc2n1CCCCOc1cccc(C)c1	15.8 µM [falling, partial curve]
CCCOc1ccc(NC(=O)CC2C(=O)N(c3ccc(OC)cc3)C(=O)N2CCc2ccncc2)cc1 (stereo unspecified)	20 µM [falling, partial curve]
CCOC(=O)c1cc(-c2ccccc2)n(CCCC(=O)Nc2cccc(C)c2)c1C	39.8 µM [falling, single point]
CC(C)(C)c1ccc(S(=O)(=O)c2cnc(SCC(=O)Nc3ccc4c(c3)OCCO4)[nH]c2=O)cc1	12.6 µM [falling, partial curve]
CCn1ccc2cc(S(=O)(=O)N3CCC(C(=O)NCC(C)c4ccccc4)CC3)ccc21 (stereo unspecified)	2 µM [falling, full curve, poor fit]
COc1ccc(S(=O)(=O)Nc2cc(-c3cn4ccc(C)cc4n3)ccc2C)cc1OC	20 µM [falling, single point]
Cc1nnc2c3ccccc3nc(Nc3ccccc3C(=O)O)n12	39.8 µM [falling, single point]
O=C(CSc1nnc(Nc2ccccc2F)s1)NCc1ccco1	31.6 µM [falling, single point]
O=C(COc1ccc(Cl)cc1)Nc1ccc2nc(SCC(=O)N3CCOCC3)sc2c1	12.6 µM [falling, partial curve]
Cc1ccc(-n2ncc(C(=O)NCc3ccccn3)c2C2CCN(C(=O)OC(C)(C)C)CC2)cc1C	25.1 µM [falling, partial curve, poor fit]
O=C(Nc1ccc(C(F)(F)F)cc1)c1cc(S(=O)(=O)N2CCCc3ccccc32)ccc1F	3.98 µM [falling, full curve]

Structure (SMILES)	AC50
COc1cc(Cl)c(C)cc1NC(=O)c1cc2c(=O)oc3ccccc3c2s1	3.16 µM [falling, full curve]
CCn1cc(C(=O)N2CCN(c3cc(Cl)ccc3C)CC2)c(=O)c2cc(S(=O)(=O)N3CCCC3)ccc21	15.8 µM [falling, partial curve]
Cc1nc2ccc(NC(=O)Nc3ccnc4cccnc34)cc2o1	3.98 µM [falling, partial curve]
Cc1cc(C(=O)N2CCN(c3cccc(Cl)c3)CC2)c2c(C)nn(-c3ccccc3Cl)c2n1	15.8 µM [falling, partial curve]
CCCSc1ncc(Cl)c(C(=O)N(Cc2ccccc2)c2ccc(OC)cc2)n1	25.1 µM [falling, single point]
Cn1ccc2c(OCC(=O)Nc3ccc(OC(F)(F)F)cc3)cccc2c1=O	3.16 µM [falling, single point]
CC(=O)c1ccc(NS(=O)(=O)c2ccc(Br)s2)cc1	7.94 µM [falling, partial curve]
Cc1cc(C)cc(C(=O)NCCc2csc(-c3ccc(C(F)(F)F)cc3)n2)c1	31.6 µM [falling, partial curve, poor fit]
CCC(Sc1nnc2c(n1)[nH]c1ccccc12)C(=O)Nc1ccccc1OC (stereo unspecified)	15.8 µM [falling, partial curve]
CCc1ccccc1S(=O)(=O)Cc1ccc(C(=O)NCCc2ccc(C)cc2)o1	20 µM [falling, partial curve]
COc1ccc(NC(=O)c2ncn(-c3ccccc3)n2)cc1Cl	20 µM [falling, partial curve]
CCOC(=O)c1c(-c2ccccc2)oc2ccc(O)c(CN3CCOCC3)c12	15.8 µM [falling, partial curve]
Cc1cccc2sc(NC(=O)CCNS(=O)(=O)c3cccs3)nc12	10 µM [falling, partial curve]
CN(C)c1ccc(C(CNC(=O)c2ccccc2Cl)N2CCCC2)cc1 (stereo unspecified)	3.16 µM [falling, partial curve]
Cc1cccc(-c2nc(CSCC(=O)N3CCN(c4ccccn4)CC3)c(C)o2)c1	5.01 µM [falling, full curve, poor fit]
COc1ccc(N2CCN(CCCNC(=O)c3cnn(-c4ccc(C)cc4)c3-n3cccc3)CC2)cc1	6.31 µM [falling, partial curve]
Cc1ccc2nc(NC(=O)C3CCCN(S(=O)(=O)c4cnc[nH]4)C3)sc2c1 (stereo unspecified)	6.31 µM [falling, partial curve]
COc1cccc(OCC(=O)NC2CC(=O)N(c3cccc(OC)c3)C2)c1 (stereo unspecified)	6.31 µM [rising, single point]
Cc1ccccc1CSc1nc2c(sc3ccccc32)c(=O)n1CCCC(=O)NCCCOC(C)C	5.01 µM [falling, partial curve]
CS(=O)(=O)CC[C@@H](C(=O)NCCc1ccccc1)N1Cc2ccccc2C1=O	0.1 µM [rising, full curve, poor fit]
Cc1cccc(OCC(=O)N2CCC(c3nc4ccccc4o3)CC2)c1C	31.6 µM [falling, single point]

Arranged by SMILES length (descending): three of the compounds above
Structure (SMILES)	AC50
Cc1ccc2nc(NC(=O)C3CCCN(S(=O)(=O)c4cnc[nH]4)C3)sc2c1 (stereo unspecified)	6.31 µM [falling, partial curve]
Cc1cccc(OCC(=O)N2CCC(c3nc4ccccc4o3)CC2)c1C	31.6 µM [falling, single point]
Cc1nc2ccc(NC(=O)Nc3ccnc4cccnc34)cc2o1	3.98 µM [falling, partial curve]

(cont.)

Structure (SMILES)	AC50
COCc1cc(C)nc2c1C(=O)NC(c1ccc(NC(C)=O)cc1)N2Cc1ccccc1 (stereo unspecified)	39.8 µM [falling, single point]
COc1ccc(/C=C/c2nc(C#N)c(NCc3ccc(C)cc3)o2)cc1OC	39.8 µM [falling, single point]
Cc1ccc(NC(=O)N2CCC3(CC2)Oc2ccccc2C(=O)N3Cc2ccc(F)cc2)cc1	31.6 µM [falling, single point]
CCNC(=O)c1ccc2c(c1)sc1nc(-c3cccc(OC)c3)cn12	31.6 µM [falling, single point]
O=C1Nc2ccc(S(=O)(=O)NCc3ccco3)c3cccc1c23	20 µM [rising, partial curve] [measured here: IkB-luc green channel]
O=C(Cn1cc(SCc2cccc(Cl)c2)c2ccccc21)N1CCCCC1	15.8 µM [falling, partial curve]
CCOc1ccc(NC(=O)CC2C(=O)N(c3ccccc3)C(=O)N2CCc2sccc2C)cc1 (stereo unspecified)	39.8 µM [falling, single point]
COc1ccc(S(=O)(=O)c2c(C(=O)c3ccc(C)c(C)c3)cnc3ccc(C)cc23)cc1	6.31 µM [falling, partial curve]
Fc1ccc(-c2cc(-c3nc(-c4ccc(Cl)cc4)no3)[nH]n2)cc1	3.16 µM [rising, full curve]
COc1cccc(/C=C/c2nc(C#N)c(NC3CCCCC3)o2)c1	39.8 µM [falling, partial curve]
CSc1ccc(CCNC(=O)Cn2c(C)c3cnn(-c4ccccc4)c(=O)c3c2C)cc1	2.51 µM [falling, partial curve]
COc1cccc(-n2c(=O)c3sc4ccccc4c3n(Cc3c(F)cccc3Cl)c2=O)c1	0.1 µM [rising, full curve]
Cc1ccc(-n2nc(CO)c(C(=O)NCCC(C)C)n2)cc1C	15.8 µM [falling, single point]
O=C(NCc1ccco1)c1cc2sccc2n1Cc1ccccc1	20 µM [falling, partial curve]
Cc1ccc(CNC(=O)c2ccc(Cn3c(SCc4ccc(F)cc4)nc4cccnc43)cc2)o1	3.16 µM [falling, full curve]
CCCN(C(=O)CCc1nc(-c2ccc(C)cc2)no1)c1ccc(OCC)cc1	20 µM [falling, partial curve]
Cc1ccc(N2C(=O)C(CC(=O)Nc3cccc(F)c3)N(CCc3ccccc3F)C2=O)cc1 (stereo unspecified)	3.16 µM [rising, partial curve]
c1ccc2c(Nc3ccncc3)nc(-c3ccc4c(c3)OCO4)nc2c1	3.16 µM [falling, single point] [measured here: IkB-luc green channel]
CN(C)c1ccc(C(=N)c2ccc(N(C)C)cc2)cc1	31.6 µM [falling, partial curve, poor fit]
